Reference: patent US20160279250, “METHODS FOR STRUCTURAL DETERMINATION OF SELENIUM DERIVATIZED NUCLEIC ACID COMPLEXES” (SeNA Research ,Inc., published 2016)
Where a chain is given by its changes, count along the chain named. Tags and fusion partners may be left off the protein sequences shown. For part of these data: For at least one entry, the source does not settle the construct or the ends of the probe.

Tests used:
[1] = molecular target: T1, RNase H truncated (TR, 59-196) (Bacillus halodurans) (UniProt Q9KEI9); assay: enzyme reaction in vitro; conditions: truncated RNase H (59-196) gave similar results; purified recombinant protein; label: 32P RNA; DNA:RNA hybrid
T1 sequence (looked up): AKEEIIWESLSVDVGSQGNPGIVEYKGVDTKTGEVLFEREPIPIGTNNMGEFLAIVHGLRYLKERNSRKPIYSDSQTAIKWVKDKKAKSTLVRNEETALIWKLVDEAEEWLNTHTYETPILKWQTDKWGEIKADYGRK

[2] = molecular target: T2, RNase H (D132N, inactive mutant) (Bacillus halodurans) (UniProt Q9KEI9); assay: structure; conditions: purified recombinant protein, protein details: expressed in BL21(DE3) pLysE, PDB 3TWH, DNA:RNA hybrid
T2 sequence (looked up, limits assumed): T1 sequence (looked up) with D74N

With “ATGTCG / UCGACA [native DNA-N/RNA duplex]” the “activity on this sequence” value [1] was “active” and the binding result ([2]; CITED Nowotny and Yang 2006, PDB 2G8U, 2.70 A, product-type complex, label: 32P RNA) was “binds”.
“GAATCAGGTGTC / GACACCUGAUUC [12-bp RNA/DNA duplex (1ZBI)]”: binds ([2]; CITED Nowotny 2005, PDB 1ZBI, 1.85 A, two RNase H bound per duplex).
